# PubChem BioAssay AID493014 (National Center for Advancing Translational Sciences (NCATS), 2011)
# In all, about 340,000 compounds went through this assay and about 170 (0.05%) were called active. The inconclusive results got no clear call from the source; some entries with a clear call stand among them for comparison. The call rests on the fitted dose curve; in most records, active means well fitted inhibition curve with a large enough effect in the signal ratio, with a control signal flat (not every such curve was filed as active); inconclusive means small, poorly fitted or top-dose-only effect, or effect the other way, or a change in a side signal; inactive means flat fitted curve, though single readings scatter; the % refers to the signal ratio. Potencies of inconclusive entries are doubtful fits and often do not repeat.
# Assay: qHTS Assay to Find Inhibitors of Chronic Active B-Cell Receptor Signaling;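 on activity change, negative = inhibition: plate controls were basal doxycycline-induced cells for no effect and cells given 10 µM MG132 for full effect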
# Conditions: ABC-DLBCL IkBa-CBG/CBR reporter, luminescence ratio (green luciferase fused to IkBa over red control in TMD8 lymphoma cells), 4 h; activity change, negative = inhibition: at 46.1 µM (top of the series)
# Summary of the method: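 Doxycycline induced both beetle luciferases in TMD8 lymphoma cells; IKK-driven degradation limits the IkappaBalpha-fused green signal, while red luminescence normalises for cell number and nonspecific effects. Compounds tested up to 46 uM, 4 hrs.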
# Potency means the concentration at half of the fitted maximal effect.
SMILES,"activity change, negative = inhibition",Potency
CC1CCCC(C)N1C(=O)COC(=O)c1cc([N+](=O)[O-])ccc1N1CCOCC1 (configuration not stated),inconclusive: 1.86%,–
Cn1c(CNC(=O)c2ccc(Cl)cc2)nnc1SCC(=O)N1CCOCC1,inactive: -0.125%,–
Cc1ccccc1NC1=NC(=S)N(c2ccccc2)C12CCCCC2,inconclusive: -4.62%,–
O=C1CCCN2N=C(SCC(=O)Nc3cccc(C(F)(F)F)c3)SC2=N1,inconclusive: 13.8%,–
Cc1ccc(Cl)c2c1=NC(=O)C=2c1[nH]c(=S)[nH]c1O,inactive: 2.68%,–
Cn1cnc([N+](=O)[O-])c1Oc1ccc2ccccc2c1,inconclusive: -19.5%,–
CCCCC(C(=O)NC1CCCC1)N(C(=O)c1snc(C(N)=O)c1N)c1ccc(C)cc1 (configuration not stated),inactive: -2.68%,–
Cc1ccc(CNC(=O)COC(=O)c2cccc(S(=O)(=O)N3CCCCC3)c2)cc1,inactive: -0.79%,–
Cc1noc(C)c1S(=O)(=O)N1CCN(c2ccccc2)CC1,inactive: -10.1%,–
Cc1nn(C)cc1NC(=O)CCSc1nc(-c2ccco2)cc(C(F)(F)F)n1,–,"inconclusive: 14.6 µM [rising, partial curve, poor fit]"
Cc1c(NC(=O)C(C)OC(=O)COc2cccc3c2OC(C)(C)C3)c(=O)n(-c2ccccc2)n1C (configuration not stated),inconclusive: -5.91%,–
Cc1cc(C)n(-c2ccc(C(=O)OCC(=O)Nc3cc(S(C)(=O)=O)ccc3Cl)cc2)n1,inconclusive: 4.16%,–
O=C(CSc1nc2cc(Cl)ccc2s1)NC1CCCc2ccccc21 (configuration not stated),inconclusive: 9.38%,–
CCN(CC)S(=O)(=O)c1cc(NC(=O)CN2C(=O)NC3(CCCc4ccccc43)C2=O)ccc1C (configuration not stated),inactive: -4.93%,–
Cc1ccc(NCc2ccccc2O)cc1C,inactive: -26.4%,–
CC(C)(C)NC(=O)CC1C[C@H](C(=O)N2CCCCC2)[C@@]2(CCc3ccccc3)c3[nH]c4ccccc4c3CCN2C1=O (some centres not stated),inactive: -0.643%,–
CC(=O)N1c2ccccc2N(Cc2ccc(C)cc2C)C(=O)C1(C)C,inconclusive: 11.1%,–
CCN(CC)c1ccc(NC(=O)C2CC3CCC2C3)cc1 (configuration not stated),inconclusive: 5.39%,–
COc1cc2c(cc1OC)C(COc1ccc(F)cc1)N(C(=O)Cc1ccccc1)CC2 (configuration not stated),inconclusive: -13.2%,–
COc1ccc(S(=O)(=O)N2CCOCC2)cc1C(=O)N(C)Cc1ccccc1F,inactive: 8.45%,–
COC(=O)C1=CN(CCOC23CC4CC(CC(C4)C2)C3)C=C(C(=O)OC)C1c1ccsc1,inactive: 17.4%,–

# Molecules from the list above that contain an NH in an aromatic ring, in the order listed:
SMILES,"activity change, negative = inhibition",Potency
Cc1ccc(Cl)c2c1=NC(=O)C=2c1[nH]c(=S)[nH]c1O,inactive: 2.68%,–
CC(C)(C)NC(=O)CC1C[C@H](C(=O)N2CCCCC2)[C@@]2(CCc3ccccc3)c3[nH]c4ccccc4c3CCN2C1=O (some centres not stated),inactive: -0.643%,–

# Remaining list, next part:

SMILES,"activity change, negative = inhibition",Potency
COc1cc([N+](=O)[O-])ccc1NC(=O)CSc1n[nH]c(C(C)C)n1,inactive: 3.09%,–
COc1ccccc1-c1cc(C(F)(F)F)nc(S(=O)(=O)CCCC(=O)Nc2cc(C)on2)n1,inconclusive: 2.45%,–
CCn1c(=N)c(S(=O)(=O)c2ccc(F)cc2)cc2c(=O)n3ccccc3nc21,inconclusive: -13.1%,–
C=CCSC1=NNC(c2ccc(C(C)(C)C)cc2)=NN1,inconclusive: 4.76%,–
COc1ccc(/C=N/NC(=O)CN2CCSCC2)cc1C,inconclusive: 2.3%,–
COc1ccc(C(C)=O)cc1CSc1nnc(Nc2ccccc2C)s1,–,"inconclusive: 14.6 µM [falling, partial curve]"
CC(C)Cn1c(N)c(C=O)c(=O)[nH]c1=O,inconclusive: -31.6%,–
CCOC(=O)c1cc(-c2ccccc2)sc1NC(=O)COC(=O)c1cccc(S(N)(=O)=O)c1,inconclusive: 2.12%,–
CCOc1cccc(-c2csc(C3COc4ccccc4O3)n2)c1 (configuration not stated),inactive: 3.24%,–
CC1(C)NC(=O)N(CC(=O)N2CCN(c3cccc(Cl)c3)CC2)C1=O,inconclusive: 4.43%,–
CC(C)CNC(=O)COc1ccccc1[N+](=O)[O-],inconclusive: -8.09%,–
COc1ccc(-c2cc3nc(C)cc(N4CC(C)CC(C)C4)n3n2)cc1 (configuration not stated),inconclusive: 3.66%,–
CCc1nc(N2CCC(C)CC2)c2oc3ccccc3c2n1,inactive: 4.48%,–
COc1ccc(C2CC(c3cccs3)=NN2C(=O)CSc2nc3c(cnn3-c3ccccc3)c(=O)[nH]2)cc1 (configuration not stated),inactive: 7.76%,–
CCc1ccccc1NC(=O)COc1ccc2oc(-c3ccc(OC)cc3)cc(=O)c2c1,inactive: 4.18%,–
CC(=O)N1CCc2cc(Br)cc(S(=O)(=O)NCCCN3CCCC(C)C3)c21 (configuration not stated),inconclusive: 4.4%,–
N#CC1=C(N)Oc2c(sc3ccccc23)C1c1ccco1 (configuration not stated),inconclusive: 0.963%,–
C=CCn1c(NC(C)c2cc(Cl)ccc2O)nc2ccccc21 (configuration not stated),inconclusive: 9.54%,–
O=c1nc(N2CCOCC2)nc(N/N=C/c2ccc3c(c2)OCO3)[nH]1,inconclusive: -20.6%,–
CCOc1ccc2oc(C(=O)N3CC(C)OC(C)C3)c(C)c2c1 (configuration not stated),inconclusive: 2.03%,–
FC(F)(F)c1ccc2c(c1)N1CCCC1CN2 (configuration not stated),inactive: -14.3%,–
